Patent US20090208927
Construct, isoform or probe ends are uncertain for at least one entry. Results from cells or extracts need not show a direct contact. For some assays here: Tags and fusion partners may be left off the protein sequences shown.

Chains of the proteins cited; added tags and fusions are not shown.
UniProt Q04206, whole entry: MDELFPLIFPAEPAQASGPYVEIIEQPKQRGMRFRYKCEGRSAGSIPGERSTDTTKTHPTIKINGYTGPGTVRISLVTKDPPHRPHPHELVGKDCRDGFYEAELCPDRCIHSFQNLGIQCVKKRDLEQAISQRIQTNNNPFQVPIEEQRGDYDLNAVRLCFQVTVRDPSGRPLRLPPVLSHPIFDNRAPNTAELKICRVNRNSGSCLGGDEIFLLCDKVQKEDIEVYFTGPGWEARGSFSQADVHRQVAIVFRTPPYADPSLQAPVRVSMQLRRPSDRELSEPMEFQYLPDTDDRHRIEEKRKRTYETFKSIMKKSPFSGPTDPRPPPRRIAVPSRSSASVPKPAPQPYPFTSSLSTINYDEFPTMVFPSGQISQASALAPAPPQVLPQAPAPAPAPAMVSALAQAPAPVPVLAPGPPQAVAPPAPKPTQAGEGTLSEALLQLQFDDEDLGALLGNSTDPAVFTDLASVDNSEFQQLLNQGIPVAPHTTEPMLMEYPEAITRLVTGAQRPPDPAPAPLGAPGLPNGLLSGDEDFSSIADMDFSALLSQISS

Legend:
[1] = target: T1, NF-kB p50 (Homo sapiens) (UniProt P19838); experiment: binding assay; conditions: internal amino-C6 linker in loop [internal amino-C6 linker (n at printed position 21) left out, between positions 20 and 21]; protection from EcoRI digestion, Luminex; 2 mM MgCl2 for binding, 10 mM for digestion; protein in an extract; protein details: endogenous, TNF-treated HeLa nuclear extract; label: 5' biotin; letters built from the parent sequence and the stated change
T1 sequence (looked up, limits assumed): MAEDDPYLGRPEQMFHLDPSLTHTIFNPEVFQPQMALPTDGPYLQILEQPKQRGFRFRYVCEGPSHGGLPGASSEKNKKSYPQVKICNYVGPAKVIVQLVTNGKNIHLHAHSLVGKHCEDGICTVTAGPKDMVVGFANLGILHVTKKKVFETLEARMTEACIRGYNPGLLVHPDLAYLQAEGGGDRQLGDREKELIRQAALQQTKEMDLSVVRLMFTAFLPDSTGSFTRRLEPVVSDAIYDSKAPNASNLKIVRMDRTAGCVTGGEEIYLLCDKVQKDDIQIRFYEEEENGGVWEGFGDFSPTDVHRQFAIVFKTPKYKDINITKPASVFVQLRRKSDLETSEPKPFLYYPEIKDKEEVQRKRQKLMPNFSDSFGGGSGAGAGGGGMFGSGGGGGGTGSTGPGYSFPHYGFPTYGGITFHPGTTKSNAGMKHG

[2] = target: NF-kB p65 (Homo sapiens) (UniProt Q04206); experiment: pull-down; conditions: anti-p65 protein G bead capture, SA-PE detection; 2 mM MgCl2, poly dI-dC, RT; protein in an extract; label: 5' biotin

Sequence | binding result [1] | binding result [2]
TCCAAGGGGATTCCCCAGTGACTGGGGAATCCCCTTGGA [KBREHP hairpin] | binds | 
TATCCAAGGGGACTTTCCCCTGGCAGGGGAAAGTCCCCTTGGATA [biotin-HPNFKB65 hairpin] |  | binds
